One sequence from US6660255B1, “Inhibition of gene transcription by polyamide DNA-binding ligands” (California Institute of Technology, priority 1997, dated 2003) can be followed below.

Amino acid sequences for entries named in this document (tags omitted).
UniProt P20226, whole entry: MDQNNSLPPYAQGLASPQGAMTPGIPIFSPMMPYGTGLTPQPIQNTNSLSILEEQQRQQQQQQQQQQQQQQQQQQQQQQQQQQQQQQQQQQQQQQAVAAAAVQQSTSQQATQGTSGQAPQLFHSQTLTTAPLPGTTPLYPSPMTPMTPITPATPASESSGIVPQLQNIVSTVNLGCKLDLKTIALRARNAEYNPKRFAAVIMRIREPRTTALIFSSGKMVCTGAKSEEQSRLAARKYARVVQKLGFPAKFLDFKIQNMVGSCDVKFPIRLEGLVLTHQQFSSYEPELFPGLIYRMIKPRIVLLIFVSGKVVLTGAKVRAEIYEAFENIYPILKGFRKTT

For this data set, the target named is TBP (rhTBP) (Homo sapiens) (UniProt P20226). The data set is described as follows: binding assay. The conditions noted are these: TBP binding inhibited by polyamide Her2-1; method not stated; purified recombinant protein; protein details: Promega.

The exact form of at least one protein or probe is not confirmed.

For the sequence “TATAAGAATGA (double strand) [Her-2/neu TATA region]”, the binding result was “binds”.
